No constants are given. Whether binding was seen depends on the method and setting. For some assays here: In cells and extracts the contact can be indirect. Some results given as binding are weak or reduced against the parent protein; the word gives no strength. For some assays here: Where a sequence is shown, tags or fusion partners need not be part of it.
Tests used:
[1] = target: GST fused with truncated (40 kilodalton) Fez1 protein (human) [GST: P08515]; assay: in vitro binding assay, GST fusion on glutathione-agarose beads, ^35S-labeled partner, SDS-PAGE; buffers A and B
[2] = target: fusion protein comprising the GAL4 protein DNA binding domain fused with full length Fez1 protein (human); assay: yeast two hybrid (strain Y190), β-galactosidase assay
[3] = target: GST fused with truncated (40 kilodalton) Fez1 protein (human) [GST: P08515]; assay: in vitro binding assay (figure legend)
[4] = target: GST fused with EF1-γ(N) (human) (UniProt P26641); assay: in vitro binding of ^35S-labeled Fez1 with GST fused with EF1-γ(N), buffer B
[5] = target: GST fused with truncated (40 kilodalton) Fez1 protein (human) [GST: P08515]; assay: in vitro binding of ^35S-labeled truncated Fez1 with GST-fused truncated Fez1, buffer B
[6] = target: GST fused with EF1-γ(N) (human) (UniProt P26641); assay: in vitro binding assay (figure legend); by paragraph 373 the labeled partner was Fez1 and EF1-γ(N) was GST-fused
[7] = target: EXP tag-fused EF1-γ protein (human) (UniProt P26641); assay: co-immunoprecipitation from lysate of co-transfected HeLaS3 cells, immunoblot
[8] = target: glutathione S-transferase (GST) protein [GST: P08515]; assay: in vitro binding of ^35S-labeled in vitro translated EF to GST fusion/GST on glutathione-agarose beads

Chains of the proteins cited; added tags and fusions are not shown. Lines headed by an entry give the natural chain unless they say otherwise; changes in a name come on top. A line that says so, or that is headed by a name, gives the form on record, which may keep a tag or linker. Residues count along the entry.
UniProt P26641: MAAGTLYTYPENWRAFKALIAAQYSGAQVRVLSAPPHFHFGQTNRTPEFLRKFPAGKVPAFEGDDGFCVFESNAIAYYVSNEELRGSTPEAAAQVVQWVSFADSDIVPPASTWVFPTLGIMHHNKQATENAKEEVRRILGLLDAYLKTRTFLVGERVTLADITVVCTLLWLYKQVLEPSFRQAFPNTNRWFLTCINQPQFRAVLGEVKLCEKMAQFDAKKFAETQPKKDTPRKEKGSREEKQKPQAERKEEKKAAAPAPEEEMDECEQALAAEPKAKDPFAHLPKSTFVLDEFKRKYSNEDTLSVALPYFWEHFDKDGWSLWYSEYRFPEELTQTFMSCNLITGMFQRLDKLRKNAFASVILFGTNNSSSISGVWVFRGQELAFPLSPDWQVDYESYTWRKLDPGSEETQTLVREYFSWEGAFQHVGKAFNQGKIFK
GST fused with EF1-γ(N): residues 1-153 of P26641

“^35S-methionine-labeled in vitro translated EF1-γ protein (from UniProt P26641 1-437)” was tested, and the binding [1] was “binds”.

For “EF1-γ clone of a human testes cDNA expression library fused with the GAL4 protein transcription activation domain (pACT2 vector) (from UniProt P26641 1-437)”, the binding [2] was “binds”.

B1: ^35S-methionine-labeled in vitro translated truncated 40 kDa Fez1 protein (protein)
chain: MGSVSSLISGHSFHSKHCRASQYKLRKSSHLKKLNRYSDGLLRFGFSQDSGHGKSSSKMGKSEDFFYIKVSQKARGSHHPDYTALSSGDLGGQAGVDFDPSTPPKLMPFSNQLEMGSEKGAVRPTAFKPVLPRSGAILHSSPESASHQLHPAPPDKPKEQELKPGLCSGALSDSGRNSMSSLPTHSTSSSYQLDPLVTPVGPTSRFGGSAHNITQGIVLQDSNMMSLKALSFSDGGSKLGHSNKADKGPSCVRSPISTDECSIQELEQKLLEREGALQKLQRSFEEKELASSLAYEERPRRCRDELEGPEPKGGNKLKQASQKSQRAQQVLHLQVLQLQQEKRQLRQELESLMKEQDLLETKLRSYEREKTSFGPA
modifications: ^35S-methionine label
For B1, the binding [3] was “binds”, the binding [4] was “binds” and the binding [5] was “binds”. The binding [6] was “binds”.

B2: V5 tag-fused Fez1 protein (protein, not shown: small tags and cut ends)
chain: MGSVSSLISGHSFHSKHCRASQYKLRKSSHLKKLNRYSDGLLRFGFSQDSGHGKSSSKMGKSEDFFYIKVSQKARGSHHPDYTALSSGDLGGQAGVDFDPSTPPKLMPFSNQLEMGSEKGAVRPTAFKPVLPRSGAILHSSPESASHQLHPAPPDKPKEQELKPGLCSGALSDSGRNSMSSLPTHSTSSSYQLDPLVTPVGPTSRFGGSAHNITQGIVLQDSNMMSLKALSFSDGGSKLGHSNKADKGPSCVRSPISTDECSIQELEQKLLEREGALQKLQRSFEEKELASSLAYEERPRRCRDELEGPEPKGGNKLKQASQKSQRAQQVLHLQVLQLQQEKRQLRQELESLMKEQDLLETKLRSYEREKTSFGPALEETQWEVCQKSGEISLLKQQLKESQTEVNAKASEILGLKAQLKDTRGKLEGLELRTQDLEGALRTKGLELEVCENELQRKKNEAELLREKVNLLEQELQELRAQAALARDMGPPTFPEDVPALQRELERLRAELREERQGHDQMSSGFQHERLVWKEEKEKVIQYQKQLQQSYVAMYQRNQRLEKALQQLARGDSAGEPLEVDLEGADIPYEDIIATEI
B2 was tested, and the binding [7] was “binds”.

B3: ^35S-methionine-labeled in vitro translated EF1-β (protein, UniProt P24534 1-225, looked up)
chain: MGFGDLKSPAGLQVLNDYLADKSYIEGYVPSQADVAVFEAVSSPPPADLCHALRWYNHIKSYEKEKASLPGVKKALGKYGPADVEDTTGSGATDSKDDDDIDLFGSDDEEESEEAKRLREERLAQYESKKAKKPALVAKSSILLDVKPWDDETDMAKLEECVRSIQADGLVWGSSKLVPVGYGIKKLQIQCVVEDDKVGTDMLEEQITAFEDYVQSMDVAAFNKI
modifications: ^35S-methionine label
With B3 the binding [8] was “binds”.

Source: patent US7141417 (THOMAS JEFFERSON UNIVERSITY, dated 2006)
